Among the data in PMC10767445 are binding values, retold here.

Protein sequences, listed by entry. Tags and fused reporters are not part of them.
UniProt Q9Y6M1: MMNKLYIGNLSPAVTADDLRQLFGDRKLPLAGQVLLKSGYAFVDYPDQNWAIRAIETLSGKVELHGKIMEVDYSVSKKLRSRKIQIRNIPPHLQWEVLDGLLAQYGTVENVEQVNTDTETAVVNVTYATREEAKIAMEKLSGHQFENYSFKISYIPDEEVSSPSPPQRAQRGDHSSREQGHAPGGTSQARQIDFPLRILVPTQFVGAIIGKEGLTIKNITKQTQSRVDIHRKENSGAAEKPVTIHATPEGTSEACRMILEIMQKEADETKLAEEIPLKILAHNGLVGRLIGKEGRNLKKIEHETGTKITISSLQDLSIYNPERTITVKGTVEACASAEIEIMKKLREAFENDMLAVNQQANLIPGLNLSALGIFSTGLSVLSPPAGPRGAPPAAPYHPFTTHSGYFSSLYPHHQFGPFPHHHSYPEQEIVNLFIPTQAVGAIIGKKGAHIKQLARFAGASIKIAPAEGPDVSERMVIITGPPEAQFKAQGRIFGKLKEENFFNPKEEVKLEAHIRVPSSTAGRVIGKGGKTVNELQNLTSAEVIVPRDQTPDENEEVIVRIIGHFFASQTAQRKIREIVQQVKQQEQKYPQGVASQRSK
UniProt P60842: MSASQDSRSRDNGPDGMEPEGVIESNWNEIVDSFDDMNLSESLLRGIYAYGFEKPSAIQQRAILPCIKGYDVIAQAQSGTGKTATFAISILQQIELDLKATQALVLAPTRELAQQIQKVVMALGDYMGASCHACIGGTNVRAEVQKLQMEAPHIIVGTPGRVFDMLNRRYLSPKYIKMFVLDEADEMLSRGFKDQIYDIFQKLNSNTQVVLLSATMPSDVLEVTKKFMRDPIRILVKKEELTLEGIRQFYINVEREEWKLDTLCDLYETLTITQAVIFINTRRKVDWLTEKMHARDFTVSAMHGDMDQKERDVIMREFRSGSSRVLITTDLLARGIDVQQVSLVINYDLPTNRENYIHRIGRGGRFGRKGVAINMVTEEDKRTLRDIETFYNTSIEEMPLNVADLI

No constants are given. Whether binding was seen depends on the method and setting. Binding seen in cells or lysates may run through a third protein. Some binding calls cover weakened binding; strength is not graded here.

This experiment deals with IGF2BP2 (human (endogenous in MDA-MB-231 and HCC-1806)) (UniProt Q9Y6M1). The experiment in a line: co-IP; endogenous proteins in MDA-MB-231 and HCC-1806 lysates; lysis buffer 50 mM Tris-HCl pH 7.5, 150 mM NaCl, 15 mM MgCl2, 5 mM EDTA, 0.1% NP-40; antibody on Protein A/G magnetic beads, 4 °C overnight; western blot.

As for EIF4A1 (from UniProt P60842 1-406), the binding entry is listed as “binds”.
